The target of one assay is T1, Mora–GFP (Drosophila) (UniProt Q9VCC0).
T1 sequence: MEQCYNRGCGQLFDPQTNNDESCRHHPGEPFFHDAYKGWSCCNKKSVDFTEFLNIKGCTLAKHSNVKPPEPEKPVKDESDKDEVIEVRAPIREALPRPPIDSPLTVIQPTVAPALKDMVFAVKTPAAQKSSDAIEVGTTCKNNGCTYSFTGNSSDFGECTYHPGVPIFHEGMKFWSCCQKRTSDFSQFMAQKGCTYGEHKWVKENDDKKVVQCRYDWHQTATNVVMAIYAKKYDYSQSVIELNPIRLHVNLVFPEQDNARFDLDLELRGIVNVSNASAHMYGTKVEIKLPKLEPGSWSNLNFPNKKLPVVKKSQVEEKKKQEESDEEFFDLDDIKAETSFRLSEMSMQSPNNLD
In words: co-IP; anti-GFP IPs from extracts of control (WT) embryos and of embryos expressing Mora–GFP or Hsp83–GFP, western blot.

The chains behind the UniProt entries cited, without tags or fusion partners.
UniProt P02828: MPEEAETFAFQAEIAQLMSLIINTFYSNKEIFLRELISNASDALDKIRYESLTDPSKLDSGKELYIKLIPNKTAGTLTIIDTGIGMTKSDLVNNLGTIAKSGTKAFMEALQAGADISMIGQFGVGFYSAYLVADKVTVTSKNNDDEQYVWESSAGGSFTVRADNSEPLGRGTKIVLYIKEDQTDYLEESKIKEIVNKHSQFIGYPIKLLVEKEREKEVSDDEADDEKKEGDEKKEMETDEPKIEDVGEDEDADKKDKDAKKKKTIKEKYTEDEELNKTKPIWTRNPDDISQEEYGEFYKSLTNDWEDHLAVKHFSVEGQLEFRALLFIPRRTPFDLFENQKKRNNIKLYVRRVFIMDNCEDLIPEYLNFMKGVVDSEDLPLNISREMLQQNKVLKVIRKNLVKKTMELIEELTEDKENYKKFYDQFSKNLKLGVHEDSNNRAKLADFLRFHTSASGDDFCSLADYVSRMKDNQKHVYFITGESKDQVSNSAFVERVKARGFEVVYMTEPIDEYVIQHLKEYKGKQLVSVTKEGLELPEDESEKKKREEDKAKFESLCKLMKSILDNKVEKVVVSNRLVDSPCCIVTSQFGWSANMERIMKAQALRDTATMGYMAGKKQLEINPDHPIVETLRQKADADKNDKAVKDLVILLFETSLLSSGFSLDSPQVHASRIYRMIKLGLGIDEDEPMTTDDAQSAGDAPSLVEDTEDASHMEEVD

A further assay concerns the target Hsp83–GFP (Drosophila) (UniProt P02828). The assay is described as above.

These are yes or no findings as the source states them, for the method shown. In cells and extracts the contact can be indirect. Some results given as binding are weak or reduced against the parent protein; the word gives no strength. For some assays here: Where a sequence is shown, tags or fusion partners need not be part of it.

Consider Hsp83 (from UniProt P02828 1-717), for which the binding entry with Mora–GFP (Drosophila) is reported as “binds”.

B1: Mora (protein, UniProt Q9VCC0 1-354)
chain: T1 sequence
B1: the binding entry in the assay with Hsp83–GFP (Drosophila) is reported as “binds”.

The values above are taken from publication PMC6983718.
